Measurements: patent US20120329784A1, “COMPOUNDS AND METHODS” (priority 2010, published 2012)
Counter-ions that a name gives are not always drawn. Some results were stated once for a whole list of compounds, not compound by compound.

target: T1, Full length human TNNI3K (hTNNI3K) (Homo sapiens, UniProt Q59H18); assay: Fluorescent polarization assay of compound inhibition on hTNNI3K ATP binding (Biological Assay Method I); conditions: mean of a minimum of 2 experiments; displacement of fluorescent ligand from hTNNI3K ATP binding pocket; 60 min at rt
T1 construct: His-MBP-TEV-Full length human TNNI3K (hTNNI3K); His (N); MBP (N); TEV cleavage site (N); made in house; host or cells: baculovirus expression system (printed 'Baculokinase system')
T1 sequence (Q59H18 1-835): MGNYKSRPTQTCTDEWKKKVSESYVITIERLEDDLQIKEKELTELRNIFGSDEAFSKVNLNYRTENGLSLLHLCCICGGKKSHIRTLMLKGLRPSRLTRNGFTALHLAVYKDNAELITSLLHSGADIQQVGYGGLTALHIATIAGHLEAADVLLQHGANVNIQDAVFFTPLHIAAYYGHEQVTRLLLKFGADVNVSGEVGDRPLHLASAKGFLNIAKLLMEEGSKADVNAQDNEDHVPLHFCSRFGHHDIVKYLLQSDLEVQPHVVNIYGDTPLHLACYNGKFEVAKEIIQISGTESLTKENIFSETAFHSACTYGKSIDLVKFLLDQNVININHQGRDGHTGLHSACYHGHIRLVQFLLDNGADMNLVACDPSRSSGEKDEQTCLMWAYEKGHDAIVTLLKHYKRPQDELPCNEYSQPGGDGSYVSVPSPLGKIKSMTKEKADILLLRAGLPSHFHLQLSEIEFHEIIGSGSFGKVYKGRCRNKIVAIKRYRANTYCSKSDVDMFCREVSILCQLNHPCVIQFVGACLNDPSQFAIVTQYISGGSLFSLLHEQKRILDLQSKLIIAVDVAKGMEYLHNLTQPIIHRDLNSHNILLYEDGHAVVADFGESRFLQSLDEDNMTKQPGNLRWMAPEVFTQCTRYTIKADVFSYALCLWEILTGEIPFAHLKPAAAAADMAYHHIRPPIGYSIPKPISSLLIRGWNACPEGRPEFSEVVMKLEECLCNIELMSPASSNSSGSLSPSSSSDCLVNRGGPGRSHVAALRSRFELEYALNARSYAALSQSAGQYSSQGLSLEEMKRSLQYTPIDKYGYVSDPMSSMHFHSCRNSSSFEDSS
Excerpt: Materials: His-MBP-TEV-Full length human TNNI3K (hTNNI3K) was expressed in Baculokinase system and purified from amylase affinity column followed by Superdex200. […] The preparation of this fluorescent ligand is disclosed in U.S. Provisional Patent Application No. 61/237,815 filed Aug. 28, 2009, the disclosure of which is incorporated by reference herein. The other buffer components, including MgCl2 (Catalog Number M1028), Bis-Tris (Catalog Number B7535), DTT (Catalog Number D9779) and Chaps (Catalog Number C3023) were purchased from Sigma-Aldrich.
A fluorescent polarization assay was used to determine does response of compound inhibition on hTNNI3K ATP binding.
Solution 2 was formed by mixing 53.8 μL of 2.6 μM hTNNI3K with a 6946.2 μL aliquot of Solution 1 (the above 5-({[2-({[3-({4-[(5-hydroxy-2-methylphenyl)amino]-2-pyrimidinyl}amino)phenyl]carbonyl}amino)ethyl]amino}carbonyl)-2-(6-hydroxy-3-oxo-3H-xanthen-9-yl)benzoic acid solution) to make up a 7 mL of mixture of hTNNI3K and 5-({[2-({[3-({4-[(5-hydroxy-2-methylphenyl)amino]-2-pyrimidinyl}amino)phenyl]carbonyl}amino)ethyl]amino}carbonyl)-2-(6-hydroxy-3-oxo-3H-xanthen-9-yl)benzoic acid (Solution 2).
Fifty (50) nL of inhibitors in DMSO (or DMSO controls) were stamped into a 384-well low volume Greiner black plate, followed by addition of 5 μL of Solution 1 to column 18 and 5 μL Solution 2 to columns 1-17 and 19-24 of the plate. […] After that, the fluorescent polarization was measured on Analyst (ex/em: 485/530 nm, Dichroic: 505). For dose response experiments, normalized data were fit by ABASE/XC50 and pXC50=(log((b−y)/(y−a)))/d−log(x), where x is the compound concentration and y is the % activity at specified compound concentration, a is the minimum % activity, b is the maximum % activity, and d is the Hill slope.
The pXC50s are averaged to determine a mean value, for a minimum of 2 experiments.

pXC50, ≥ 6.0:
CNS(=O)(=O)c1cccc(Nc2cc(Nc3ccc(N4CCCC4=O)cc3)ncn2)c1 [Example 231, N-methyl-3-[(6-{[4-(2-oxo-1-pyrrolidinyl)phenyl]amino}-4-pyrimidinyl)amino]benzenesulfonamide trifluoroacetate]
CNS(=O)(=O)c1cccc(Nc2cc(Nc3cccc(-c4cccc(N(C)C)c4)c3)ncn2)c1 [Example 332, 3-[(6-{[3′-(dimethylamino)-3-biphenylyl]amino}-4-pyrimidinyl)amino]-N-methylbenzenesulfonamide]
CNC(=O)c1ccc(Nc2cc(Nc3cccc(S(=O)(=O)NC)c3)ncn2)cc1 [Example 79, N-methyl-4-{[6-({3-[(methylamino)sulfonyl]phenyl}amino)-4-pyrimidinyl]amino}benzamide trifluoroacetate]
CNS(=O)(=O)c1ccc(SC)c(Nc2cc(Nc3ccc(N4CCOCC4)cc3)ncn2)c1 [Example 148, N-methyl-4-methylsulfanyl-3-[6-(4-morpholin-4-yl-phenylamino)-pyrimidin-4-ylamino]-benzenesulfonamide trifluoroacetate]
CNS(=O)(=O)c1cccc(Nc2cc(Nc3cc(Cl)cc(Br)c3)ncn2)c1 [Example 220, 3-({6-[(3-bromo-5-chlorophenyl)amino]-4-pyrimidinyl}amino)-N-methylbenzenesulfonamide trifluoroacetate]
CNS(=O)(=O)c1cccc(Nc2cc(Nc3cccc(N4CCN(C)CC4)c3)ncn2)c1 [Example 214, N-methyl-3-[(6-{[3-(4-methyl-1-piperazinyl)phenyl]amino}-4-pyrimidinyl)amino]benzenesulfonamide trifluoroacetate]
CNS(=O)(=O)c1ccc(OCC(F)(F)F)c(Nc2cc(Nc3ccc(F)cn3)ncn2)c1 [Example 320, 3-({6-[(5-fluoro-2-pyridinyl)amino]-4-pyrimidinyl}amino)-N-methyl-4-[(2,2,2-trifluoroethyl)oxy]benzenesulfonamide trifluoroacetate]
CNS(=O)(=O)c1ccc(SC)c(Nc2cc(Nc3ccc4c(c3)OCCO4)ncn2)c1 [Example 149, trifluoroacetate]
CNS(=O)(=O)c1ccc2c(c1)N(c1cc(Nc3cccc(F)c3)ncn1)CC2 [Example 29, 1-{6-[(3-fluorophenyl)amino]-4-pyrimidinyl}-N-methyl-2,3-dihydro-1H-indole-6-sulfonamide trifluoroacetate]
CNS(=O)(=O)c1ccc(SC)c(Nc2cc(Nc3ccc(C(=O)NCCOC)cc3)ncn2)c1 [Example 39, 4-[(6-{[5-[(methylamino)sulfonyl]-2-(methylthio)phenyl]amino}-4-pyrimidinyl)amino]-N-[2-(methyloxy)ethyl]benzamide trifluoroacetate]
CNS(=O)(=O)c1cccc(Nc2cc(Nc3ccc(C(=O)N4CC[C@@H](N(C)C)C4)cc3)ncn2)c1 [Example 367, 3-({6-[(4-{[(3R)-3-(dimethylamino)-1-pyrrolidinyl]carbonyl}phenyl)amino]-4-pyrimidinyl}amino)-N-methylbenzenesulfonamide]
CNS(=O)(=O)c1cccc(Nc2cc(Nc3ccc(C(N)=O)cc3)ncn2)c1 [Example 56, 4-{[6-({3-[(methylamino)sulfonyl]phenyl}amino)-4-pyrimidinyl]amino}benzamide trifluoroacetate]
CNS(=O)(=O)c1ccc(F)c(Nc2cc(Nc3ccc(F)c(F)c3)ncn2)c1 [Example 44, 3-({6-[(3,4-difluorophenyl)amino]-4-pyrimidinyl}amino)-4-fluoro-N-methylbenzenesulfonamide trifluoroacetate]
CNS(=O)(=O)c1cccc(Nc2cc(Nc3cccc(S(N)(=O)=O)c3)ncn2)c1 [Example 67, 3-[(6-{[3-(aminosulfonyl)phenyl]amino}-4-pyrimidinyl)amino]-N-methylbenzenesulfonamide trifluoroacetate]
